Results are given in words; binding and its absence hold for the method and conditions named. In cells and extracts the contact can be indirect. Some binding calls cover weakened binding; strength is not graded here. Tags and fused reporters may be left off the sequences shown.
Columns and labels:
[1] = target: GST-fused 14-3-3 protein Bmh2 (yeast) (UniProt P34730); assay: condition: only cells treated with ammonium (50 mM) for 30 min; pull-down; GST-Bmh2 pulled down from lysates of yeast cells (MA025) grown on glucose proline medium and collected 30 min after addition of ammonium (50 mM); Bul1-FLAG detected by anti-FLAG immunoblot
[2] = target: GST-fused 14-3-3 protein Bmh2 (yeast) (UniProt P34730); assay: pull-down; GST-Bmh2 pulled down from lysates of yeast cells (MA025) grown on glucose proline medium, collected before and after addition of FTY720 (10 μM); Bul1-FLAG detected by anti-FLAG immunoblot

By UniProt entry, the sequences of proteins in these tests, tags left out.
UniProt P34730: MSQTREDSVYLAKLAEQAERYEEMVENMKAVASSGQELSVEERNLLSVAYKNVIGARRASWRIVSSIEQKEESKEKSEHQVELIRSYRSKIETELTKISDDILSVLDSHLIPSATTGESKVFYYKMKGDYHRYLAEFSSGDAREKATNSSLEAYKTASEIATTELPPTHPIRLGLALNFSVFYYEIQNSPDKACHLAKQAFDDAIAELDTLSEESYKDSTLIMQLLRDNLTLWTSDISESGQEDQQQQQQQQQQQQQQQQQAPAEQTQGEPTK

binding [1]: no binding
binding [2]: binds
B1: Bul1-FLAG (protein, UniProt P48524 1-976)
chain: MAKDLNDSGFPPKRKPLLRPQRSDFTANSSTTMNVNANTRGRGRQKQEGGKGSSRSPSLHSPKSWIRSASATGILGLRRPELAHSHSHAPSTGTPAGGNRSPLRRSTANATPVETGRSLTDGDINNVVDVLPSFEMYNTLHRHIPQGNVDPDRHDFPPSYQEANNSTATGAAGSSADLSHQSLSTDALGATRSSSTSNLENLIPLRTEHHSIAAHQSTAVDEDSLDIPPILDDLNDTDNIFIDKLYTLPKMSTPIEITIKTTKHAPIPHVKPEEESILKEYTSGDLIHGFITIENKSQANLKFEMFYVTLESYISIIDKVKSKRTIKRFLRMVDLSASWSYSKIALGSGVDFIPADVDYDGSVFGLNNSRVLEPGVKYKKFFIFKLPLQLLDVTCKQEHFSHCLLPPSFGIDKYRNNCKYSGIKVNRVLGCGHLGTKGSPILTNDMSDDNLSINYTIDARIVGKDQKASKLYIMKEREYNLRVIPFGFDANVVGERTTMSQLNDITKLVQERLDALRKIFQRLEKKEPITNRDIHGADLSGTIDDSIESDSQEILQRKLDQLHIKNRNNYLVNYNDLKLGHDLDNGRSGNSGHNTDTSRAWGPFVESELKYKLKNKSNSSSFLNFSHFLNSSSSSMSSSSNAGKNNHDLTGNKERTGLILVKAKIPKQGLPYWAPSLLRKTNVFESKSKHDQENWVRLSELIPEDVKKPLEKLDLQLTCIESDNSLPHDPPEIQSITTELICITAKSDNSIPIKLNSELLMNKEKLTSIKALYDDFHSKICEYETKFNKNFLELNELYNMNRGDRRPKELKFTDFITSQLFNDIESICNLKVSVHNLSNIFKKQVSTLKQHSKHALSEDSISHTGNGSSSSPSSASLTPVTSSSKSSLFLPSGSSSTSLKFTDQIVHKWVRIAPLQYKRDINVNLEFNKDIKETLIPSFESCLCCRFYCVRVMIKFENHLGVAKIDIPISVRQVTK
